Values quoted from earlier work, collected in publication PMC10623564, “Ruthenium-Based Photoactivated Chemotherapy” (Journal of the American Chemical Society, 2023).

CC(=O)C=C(C)[O][Ru+].c1ccc(-c2ccccn2)nc1.c1ccc(-c2ccccn2)nc1 [[Ru(bpy)2(acac)]^+, reference compound]
photosubstitution observed (NIR light activated, works via a PDT mechanism): no reported sign of photosubstitution

Oc1cccc(-c2cccc(O)n2)n1.[Ru+2].c1ccc(-c2ccccn2)nc1.c1ccc(-c2ccccn2)nc1 [3^2+, [Ru(bpy)2(6,6′-dOHbpy)]^2+]
photoreactivity at pH 7.5 (pH 7.5, phenol groups deprotonated): photostable
